No constants are given. Whether binding was seen depends on the method and setting.
Biological target: T1, citrate synthase (CS) from porcine heart (porcine, UniProt P00889 28-464)
T1 construct: citrate synthase, mitochondrial, from porcine heart; Used native (fresh) or partly heat-denatured (2 h at 45 °C); the assays tell the two states apart; source: bought: Sigma-Aldrich (from porcine heart)
T1 sequence (looked up): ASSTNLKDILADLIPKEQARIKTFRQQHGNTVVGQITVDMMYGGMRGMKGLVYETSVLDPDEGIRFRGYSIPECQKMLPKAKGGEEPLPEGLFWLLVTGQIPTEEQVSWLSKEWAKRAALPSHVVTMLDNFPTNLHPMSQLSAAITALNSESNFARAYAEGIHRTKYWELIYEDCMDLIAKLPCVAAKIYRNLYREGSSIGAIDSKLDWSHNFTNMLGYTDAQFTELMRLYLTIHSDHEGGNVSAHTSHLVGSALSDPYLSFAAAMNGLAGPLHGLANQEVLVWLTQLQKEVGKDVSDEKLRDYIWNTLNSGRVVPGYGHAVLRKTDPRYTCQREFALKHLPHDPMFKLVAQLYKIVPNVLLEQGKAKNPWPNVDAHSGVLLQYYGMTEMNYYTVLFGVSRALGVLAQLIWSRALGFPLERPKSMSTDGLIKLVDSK
Assay: SEC; fresh, non-heat-treated samples (1200 nM CS alone; freshly mixed 1:2 CS:rh Bri3 BRICHOS); Superose 6, 20 mM ammonium acetate pH 8.0, 0.7 ml/min; peak fractions by reducing SDS-PAGE; both purified

- binding: no binding (tested: 1200 nM)
B1: citrate synthase (CS) from porcine heart (enzyme, UniProt P00889 28-464)
chain: T1 sequence (looked up)
